Values quoted from earlier work in US6951877B2, “Materials and methods for treating hypercholesterolemia” (ARYx Therapeutics, Inc., priority 2002, dated 2005).
For at least one compound, name, drawing or mass did not settle the structure.

How the values were obtained:
[1] = tested on: patients with established CAD
[2] = tested on: patients with angiographic CAD

Structure (SMILES): CCC(C)(C)C(=O)O[C@H]1C[C@@H](C)C=C2C=C[C@H](C)[C@H](CC[C@@H]3C[C@@H](O)CC(=O)O3)[C@H]21 [simvastatin]
- increase of HDL cholesterol ([1]; 4S): 8%
- reduction of LDL cholesterol ([1]; 4S): 35%
- reduction in major coronary events ([1]; mean 5.4-year follow-up period): 34%

Structure (SMILES): CC(C)n1c(/C=C/C(O)CC(O)CC(=O)O)c(-c2ccc(F)cc2)c2ccccc21 (stereo not shown) [Fluvastatin, fluvastatin]
- reduction of LDL cholesterol ([2]; baseline LDL cholesterol 115-190 mg/dL): 24%
- progression of coronary atherosclerosis ([2]; over the 2.5-year follow-up period): significantly reduced progression of coronary atherosclerosis

Structure (SMILES): CC[C@H](C)C(=O)O[C@H]1C[C@H](O)C=C2C=C[C@H](C)[C@H](CC[C@@H](O)C[C@@H](O)CC(=O)O)[C@H]21 [pravastatin]
- reduction of LDL cholesterol (CAD patients; baseline LDL cholesterol 130-190 mg/dL): 28%
- reduction of atherosclerotic progression (CAD patients; over the 3-year follow-up): 40%
